Assay [1] has as its target ParA (P. aeruginosa), BACTH fusion (P. aeruginosa). Description: two-hybrid; bacterial two-hybrid (BACTH): CyaT18 and CyaT25 fusions co-expressed in E. coli BTH101 cya-; MacConkey agar with 1% maltose and 0.15 mM IPTG at 28°C; β-galactosidase activity of cultures grown overnight at 28°C.
Assay [2] addresses ParB 37-290, BACTH fusion (P. aeruginosa). The assay is described as above.

Results are given in words; binding and its absence hold for the method and conditions named. Binding can be weak; no strength is given. Where a sequence is shown, tags or fusion partners need not be part of it.

B1: MinD (PA3244), BACTH fusion (protein, UniProt Q9HYZ6 1-271)
chain: MAKILVVTSGKGGVGKTTTSAAIGTGLALRGFKTVIVDFDVGLRNLDLIMGCERRVVYDFVNVVNGEATLTQALIKDKRLENLHVLAASQTRDKDALTKEGVEKVMAELRKDFEYIICDSPAGIEKGAHLAMYFADEAIVVTNPEVSSVRDSDRMLGLLASKSQRAEKGEEPIKEHLLLTRYNPERVTKGEMLGVDDVEEILAIRLLGVIPESQAVLKASNQGVPVILDEQSDAGQAYSDAVDRLLGKEIPHRFLDVQKKGFLQRLFGGRE
Regarding B1, the binding result in assay [1] is reported as “no binding”.

B2: MinC (P. aeruginosa), BACTH fusion (protein, UniProt Q9HYZ7 1-263)
chain: MSQADLLDQDPVFQLKGSMLAVTILELAHNDLARLERQLADKVAQAPNFFRDTPLVMALDKLPEGEGRLDLPALLEVCRRHGLRTLAIRAGREEDIAAAQALDLPVLPPSGARERPLDIKDSAPRKPAEEPSPSAGEARPEPAKAEEKPAEPVSRPTKVVKTPVRGGMQIYAAGGDLIVLAAVSPGAELLADGNIHVYGPMRGRALAGVKGDATARIFCQQLAAELVSIAGNYKVAEDLRRSPQWGKAVHVSLSGDVLNITRL
With B2, the binding result in assay [1] is “binds”.

B3: PA4465 (YhbJ/RapZ), full length, BACTH fusion (protein, UniProt Q9HVV3 1-286)
chain: MRLIIVSGRSGSGKSTALNVLEDNGFYCIDNLPASLLPDLAQRALLHTELLQPQVAVSIDARNLPSQLQRFPELLQEVRDNHINCDVLYLDADDETLLKRFSETRRRHPLTTDTRSLAEAIGDESQLLGPIADLADLKLDTTSLNLYQLRDTIKLRLLNKPEPGTAFLVESFGFKRGMPVDADLVFDVRCLPNPYWKPELRDHSGLEPEVREYLAAQPDVEEMYQDIVGYLNKWLPRFAASNRSYVTVAIGCTGGHHRSVYLAERIGAALRDSLKNVQIRHRDLSS
Regarding B3, in assay [2], the binding entry was “binds”.
